Test results taken from PubChem BioAssay AID624246 (National Center for Advancing Translational Sciences (NCATS), 2012).
Hit rate of the full screen: of about 370,000 compounds, about 100 (0.027%) were called active. Inconclusive means that the source gave no clear call. Such entries were picked first, then a sample of the others. The call rests on the fitted dose curve; in most records, active means well fitted inhibition curve with a large enough effect in the polarisation, with a control signal flat; inconclusive means small, poorly fitted or top-dose-only effect, or effect the other way, or a change in a side signal; inactive means no such curve, though single readings can be large or run the other way; the % refers to the polarisation. Where the call is inconclusive, the potency comes from a doubtful curve fit. A note “side channel” means that the fit belongs to a control or component signal, not to the main read-out.

Chains of the proteins cited; added tags and fusions are not shown. Lines headed by an entry give the natural chain unless they say otherwise; changes in a name come on top.
UniProt P11308: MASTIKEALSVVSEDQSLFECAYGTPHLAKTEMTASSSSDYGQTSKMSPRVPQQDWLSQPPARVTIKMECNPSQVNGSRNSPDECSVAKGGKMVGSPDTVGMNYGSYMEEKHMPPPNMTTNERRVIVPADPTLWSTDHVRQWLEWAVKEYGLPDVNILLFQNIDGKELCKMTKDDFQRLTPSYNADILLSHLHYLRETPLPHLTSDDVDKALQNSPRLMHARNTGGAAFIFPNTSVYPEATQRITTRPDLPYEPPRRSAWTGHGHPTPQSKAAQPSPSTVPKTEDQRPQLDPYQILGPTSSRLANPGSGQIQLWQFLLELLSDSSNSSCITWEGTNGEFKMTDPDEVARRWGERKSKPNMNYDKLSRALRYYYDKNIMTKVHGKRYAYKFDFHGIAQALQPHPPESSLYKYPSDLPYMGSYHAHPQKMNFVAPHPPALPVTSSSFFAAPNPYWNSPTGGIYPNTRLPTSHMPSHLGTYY

biological target: Transcriptional regulator ERG (Homo sapiens) (UniProt P11308); assay: qHTS for Small Molecule Inhibitors of the ERG Ets/DNA interaction; settings: fluorescence polarization, His-ERG Ets domain / labelled DNA; series mostly up to 76.9 µM
Procedure, shortened: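 His-tagged ERG Ets domain (1 uM in the protein solution; 300mM KCl, 50mM Tris-HCl, 1mM EDTA, 1mM DTT, pH 7.5) received compound, then a probe mix of 5 nM fluorescein-DNA and 100nM Texas-615-DNA. Fluorescence polarization was read for both dyes.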
Potency means the concentration at half of the fitted maximal effect.

Structure (SMILES)	Potency
C=CCN1CC(c2nc3ccccc3n2CCOc2ccccc2)CC1=O (stereo not drawn)	inactive
CCOc1ccc(-c2nnc(NC(=O)Cc3cc(OC)c(OC)c(OC)c3)o2)cc1	inconclusive: 0.891 µM [inhibitor, full curve, poor fit]
CCCc1c(C(=O)N/N=C/c2ccc(C)s2)nnn1-c1nonc1N	inactive
CCOc1ccc(-c2nnc(SCC(=O)Nc3cc(C)on3)o2)cc1	inconclusive: 2.24 µM [quencher, side channel, full curve, poor fit]
COc1ccc(S(=O)(=O)Nc2cc3c(C(C)=O)c(C)oc3c3ccccc23)cc1	inactive
N#Cc1ccc(C(=O)Nc2nnc(-c3cccs3)o2)cc1	inactive
CS/C(=C(/C#N)S(=O)(=O)c1ccc(Cl)cc1)N1CCOCC1	inconclusive: 11.2 µM [inhibitor, single point]
COc1cc(OC)c(N(C)S(=O)(=O)c2cccc(C(=O)NC(C)C3CC4CCC3C4)c2)cc1Cl (stereo not drawn)	inconclusive: 35.5 µM [inhibitor, partial curve, poor fit]
Cc1ccc(S(=O)(=O)/N=C(/NC(=S)Nc2c(C)n(C)n(-c3ccccc3)c2=O)c2ccccc2)cc1	inconclusive: 3.98 µM [inhibitor, single point]
CCN(CC)S(=O)(=O)c1ccc2oc(C(=O)Nc3ccc(Br)cc3F)c(C)c2c1	inactive
Cc1cc2ccccc2n1CCNC(=O)C(C)C	inconclusive: 50.1 µM [inhibitor, partial curve, poor fit]
CC(C(=O)O)N1C(=O)CSC1=S (stereo not drawn)	inconclusive: 28.2 µM [fluorescent, side channel, partial curve]
CCN(CC)c1ccc(C(=O)c2ccccc2C(=O)O)c(O)c1	inconclusive: 28.2 µM [fluorescent, side channel, partial curve, poor fit]
COc1ccc(/C(C)=N/OC/C(O)=C(\C#N)c2nc3ccccc3[nH]2)cc1OC	inactive
COc1ccc2cc3c(N)c(C(=O)NCc4ccco4)sc3nc2c1	inconclusive: 14.1 µM [quencher, side channel, partial curve]
CCCCOC(=O)c1[nH]c2c(c1C)C(=O)CC(c1cc(OC)c(OC)c(OC)c1)C2 (stereo not drawn)	inactive
CCn1ccc2cc(S(=O)(=O)N3CCCN(C(=O)Nc4ccc(C)c(F)c4)CC3)ccc21	inconclusive: 10 µM [quencher, side channel, partial curve, poor fit]
Clc1ccc(N=c2ssnc2Cl)nc1	inconclusive: 28.2 µM [inhibitor, single point]

Some of these compounds in order of SMILES length, smallest number first.
Structure (SMILES)	Potency
C=CCN1CC(c2nc3ccccc3n2CCOc2ccccc2)CC1=O (stereo not drawn)	inactive
CCN(CC)S(=O)(=O)c1ccc2oc(C(=O)Nc3ccc(Br)cc3F)c(C)c2c1	inactive
CCn1ccc2cc(S(=O)(=O)N3CCCN(C(=O)Nc4ccc(C)c(F)c4)CC3)ccc21	inconclusive: 10 µM [quencher, side channel, partial curve, poor fit]
